Results are given in words; binding and its absence hold for the method and conditions named. In cells and extracts the contact can be indirect. Some results given as binding are weak or reduced against the parent protein; the word gives no strength.

Amino acid sequences for entries named in this document (tags omitted). A change or cut given only in a name is not applied to a line headed by its entry.
UniProt P23526: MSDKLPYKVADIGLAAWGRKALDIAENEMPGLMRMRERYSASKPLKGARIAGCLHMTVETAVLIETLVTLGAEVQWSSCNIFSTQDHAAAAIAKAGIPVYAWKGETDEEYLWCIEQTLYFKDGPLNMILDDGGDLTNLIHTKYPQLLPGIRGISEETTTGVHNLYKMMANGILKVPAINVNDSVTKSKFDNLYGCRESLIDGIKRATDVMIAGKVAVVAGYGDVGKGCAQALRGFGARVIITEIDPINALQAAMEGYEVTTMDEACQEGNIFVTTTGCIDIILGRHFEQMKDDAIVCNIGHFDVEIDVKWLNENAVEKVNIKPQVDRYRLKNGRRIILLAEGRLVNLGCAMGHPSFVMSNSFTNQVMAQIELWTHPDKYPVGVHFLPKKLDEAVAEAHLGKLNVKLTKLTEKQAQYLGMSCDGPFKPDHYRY
UniProt P55263: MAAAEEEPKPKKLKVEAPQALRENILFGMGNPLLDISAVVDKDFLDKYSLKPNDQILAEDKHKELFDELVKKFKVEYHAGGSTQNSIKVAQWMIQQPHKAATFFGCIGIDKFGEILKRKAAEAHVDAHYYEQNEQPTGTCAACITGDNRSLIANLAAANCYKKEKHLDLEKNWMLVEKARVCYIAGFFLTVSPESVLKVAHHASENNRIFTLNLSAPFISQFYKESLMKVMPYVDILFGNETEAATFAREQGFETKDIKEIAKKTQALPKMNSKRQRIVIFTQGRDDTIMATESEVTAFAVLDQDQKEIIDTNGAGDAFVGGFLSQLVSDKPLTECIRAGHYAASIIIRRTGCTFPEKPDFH

In experiment [1] the target is His-fused human S-adenosylhomocysteine hydrolase (SAHH), overexpressed in HUVECs (human) (UniProt P23526). In words: co-IP; lysate (RIPA buffer) of HUVECs overexpressing His-tagged SAHH; IP with mouse anti-His antibody or, reciprocally, goat anti-ADK antibody on protein G-sepharose, overnight; washes with 0.05 M HEPES pH 7.1, 0.15% Triton X-100, 0.15 M NaCl; immunoblot with rabbit anti-ADK and rabbit anti-SAHH.

For experiment [2], the target named is adenosine kinase (ADK), endogenous in HUVECs (human (endogenous in HUVECs)) (UniProt P55263). The experiment is described as follows: co-IP; lysate (RIPA buffer) of non-transfected HUVECs treated with vehicle or TNF-α (10 ng/ml for 12 h); IP with goat anti-ADK antibody on protein G-sepharose; immunoblot with rabbit anti-SAHH and rabbit anti-ADK.
Experiment [3] shares this target. The experiment is described as follows: co-IP; lysate (RIPA buffer) of HUVECs overexpressing His-tagged SAHH; IP with mouse anti-His antibody or, reciprocally, goat anti-ADK antibody on protein G-sepharose, overnight; washes with 0.05 M HEPES pH 7.1, 0.15% Triton X-100, 0.15 M NaCl; immunoblot with rabbit anti-ADK and rabbit anti-SAHH.

As for “adenosine kinase (ADK), endogenous in HUVECs (from UniProt P55263 1-362) (enzyme)”, the binding result in experiment [1] was “binds”.
Regarding “S-adenosylhomocysteine hydrolase (SAHH), endogenous in HUVECs (from UniProt P23526 1-432) (enzyme)”, the binding result in experiment [2] was “binds”.
Regarding “His-fused human S-adenosylhomocysteine hydrolase (SAHH), overexpressed in HUVECs (from UniProt P23526-1 1-432) (enzyme)”, in experiment [3], the binding entry is “binds”.

(Values after article PMC5643397.)
